Experimental findings from doi:10.1101/286708 are described below.

Sequences of proteins named here, by UniProt entry; tags and fusion partners are left off. A change or cut given only in a name is not applied to a line headed by its entry. A line that says so, or that is headed by a name, gives the form on record, which may keep a tag or linker.
UniProt P49674: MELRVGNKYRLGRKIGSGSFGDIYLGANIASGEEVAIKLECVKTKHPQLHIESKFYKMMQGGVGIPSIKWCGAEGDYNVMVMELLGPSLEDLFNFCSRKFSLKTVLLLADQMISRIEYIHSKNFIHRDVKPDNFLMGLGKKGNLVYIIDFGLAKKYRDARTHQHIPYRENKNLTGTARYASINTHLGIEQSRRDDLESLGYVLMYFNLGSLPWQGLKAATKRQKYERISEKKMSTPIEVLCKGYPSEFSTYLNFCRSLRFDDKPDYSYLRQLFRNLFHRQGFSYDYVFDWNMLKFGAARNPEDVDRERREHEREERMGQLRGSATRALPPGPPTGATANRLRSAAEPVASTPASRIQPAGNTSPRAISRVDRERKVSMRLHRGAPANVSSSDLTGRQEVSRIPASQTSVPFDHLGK
myc-MDM2, in vitro transcribed and translated (Q00987-11, form named): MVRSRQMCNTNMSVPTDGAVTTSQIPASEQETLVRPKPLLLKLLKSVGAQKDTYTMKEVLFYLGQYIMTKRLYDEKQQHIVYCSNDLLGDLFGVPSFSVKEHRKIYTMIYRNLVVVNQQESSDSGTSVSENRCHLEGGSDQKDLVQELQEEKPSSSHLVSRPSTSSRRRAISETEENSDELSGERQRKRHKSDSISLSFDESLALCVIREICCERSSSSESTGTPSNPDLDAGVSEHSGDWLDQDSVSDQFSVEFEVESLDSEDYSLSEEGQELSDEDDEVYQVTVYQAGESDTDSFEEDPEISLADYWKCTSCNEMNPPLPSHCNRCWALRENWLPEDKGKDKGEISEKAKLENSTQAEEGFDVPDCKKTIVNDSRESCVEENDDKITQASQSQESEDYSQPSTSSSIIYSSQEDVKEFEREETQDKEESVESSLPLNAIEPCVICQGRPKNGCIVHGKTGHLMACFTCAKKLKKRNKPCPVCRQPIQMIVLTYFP
UniProt Q9Y297: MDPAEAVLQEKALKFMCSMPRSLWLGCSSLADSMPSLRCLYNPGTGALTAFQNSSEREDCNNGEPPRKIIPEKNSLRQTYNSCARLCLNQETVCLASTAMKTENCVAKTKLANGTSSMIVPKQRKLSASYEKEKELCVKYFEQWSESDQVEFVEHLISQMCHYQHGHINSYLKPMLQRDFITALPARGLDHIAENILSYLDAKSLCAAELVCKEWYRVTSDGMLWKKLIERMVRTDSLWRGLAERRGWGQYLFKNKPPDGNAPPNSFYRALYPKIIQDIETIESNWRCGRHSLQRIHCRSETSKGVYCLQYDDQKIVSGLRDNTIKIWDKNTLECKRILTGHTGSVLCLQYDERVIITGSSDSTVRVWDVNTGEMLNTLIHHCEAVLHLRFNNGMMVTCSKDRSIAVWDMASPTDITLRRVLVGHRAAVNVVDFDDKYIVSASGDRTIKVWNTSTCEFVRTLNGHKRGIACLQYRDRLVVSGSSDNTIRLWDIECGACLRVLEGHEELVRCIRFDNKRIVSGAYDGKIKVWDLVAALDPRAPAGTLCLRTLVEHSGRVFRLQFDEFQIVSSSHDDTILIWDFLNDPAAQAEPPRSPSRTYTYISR
β-TrCP1, in vitro transcribed and translated (Q9Y297-2, form named): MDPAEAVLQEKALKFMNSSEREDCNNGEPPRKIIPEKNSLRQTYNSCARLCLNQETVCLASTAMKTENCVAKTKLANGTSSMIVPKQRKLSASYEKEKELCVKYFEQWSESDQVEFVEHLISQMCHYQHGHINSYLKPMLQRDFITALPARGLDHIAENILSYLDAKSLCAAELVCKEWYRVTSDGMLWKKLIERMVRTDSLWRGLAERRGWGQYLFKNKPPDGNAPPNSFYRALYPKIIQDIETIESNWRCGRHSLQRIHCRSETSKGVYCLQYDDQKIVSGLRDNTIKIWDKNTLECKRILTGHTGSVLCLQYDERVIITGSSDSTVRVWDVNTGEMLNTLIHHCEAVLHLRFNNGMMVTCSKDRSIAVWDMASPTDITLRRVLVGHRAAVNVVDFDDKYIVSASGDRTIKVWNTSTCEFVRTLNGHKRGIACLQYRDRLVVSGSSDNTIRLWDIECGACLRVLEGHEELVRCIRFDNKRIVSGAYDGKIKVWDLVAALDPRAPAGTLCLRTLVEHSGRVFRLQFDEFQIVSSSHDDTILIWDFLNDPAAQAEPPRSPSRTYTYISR

Substitutions are numbered along the chain they refer to. Results are given in words; binding and its absence hold for the method and conditions named. Binding seen in cells or lysates may run through a third protein. Some results given as binding are weak or reduced against the parent protein; the word gives no strength. For some assays here: Where a sequence is shown, tags or fusion partners need not be part of it.

Test [1] has as its target T1, myc-PER2(683-872), in vitro transcribed and translated (human) (UniProt O15055).
T1 sequence: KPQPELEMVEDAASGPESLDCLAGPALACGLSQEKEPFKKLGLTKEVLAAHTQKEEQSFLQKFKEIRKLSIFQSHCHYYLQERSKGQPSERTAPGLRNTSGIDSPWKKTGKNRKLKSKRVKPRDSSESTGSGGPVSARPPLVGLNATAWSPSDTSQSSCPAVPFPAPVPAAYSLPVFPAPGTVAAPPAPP
Put plainly: co-IP.

For test [2], the target named is T2, GST-PER2(356-574) (human) (UniProt O15055).
T2 sequence: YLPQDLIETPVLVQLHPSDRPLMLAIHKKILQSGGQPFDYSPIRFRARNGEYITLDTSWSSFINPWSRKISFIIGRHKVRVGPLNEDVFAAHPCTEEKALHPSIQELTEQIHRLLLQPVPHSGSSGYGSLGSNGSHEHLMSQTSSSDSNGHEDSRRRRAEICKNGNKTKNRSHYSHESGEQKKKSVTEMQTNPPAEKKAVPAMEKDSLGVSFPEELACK
Put plainly: pull-down.

Test [3] deals with T3, GST-PER2(683-872) (human) (UniProt O15055).
T3 sequence: T1 sequence
The test is described as follows: pull-down.

The target in test [4] is T4, FLAG-PER2 expressed in HCT116 p53+/+ cells (human) (UniProt O15055).
T4 sequence: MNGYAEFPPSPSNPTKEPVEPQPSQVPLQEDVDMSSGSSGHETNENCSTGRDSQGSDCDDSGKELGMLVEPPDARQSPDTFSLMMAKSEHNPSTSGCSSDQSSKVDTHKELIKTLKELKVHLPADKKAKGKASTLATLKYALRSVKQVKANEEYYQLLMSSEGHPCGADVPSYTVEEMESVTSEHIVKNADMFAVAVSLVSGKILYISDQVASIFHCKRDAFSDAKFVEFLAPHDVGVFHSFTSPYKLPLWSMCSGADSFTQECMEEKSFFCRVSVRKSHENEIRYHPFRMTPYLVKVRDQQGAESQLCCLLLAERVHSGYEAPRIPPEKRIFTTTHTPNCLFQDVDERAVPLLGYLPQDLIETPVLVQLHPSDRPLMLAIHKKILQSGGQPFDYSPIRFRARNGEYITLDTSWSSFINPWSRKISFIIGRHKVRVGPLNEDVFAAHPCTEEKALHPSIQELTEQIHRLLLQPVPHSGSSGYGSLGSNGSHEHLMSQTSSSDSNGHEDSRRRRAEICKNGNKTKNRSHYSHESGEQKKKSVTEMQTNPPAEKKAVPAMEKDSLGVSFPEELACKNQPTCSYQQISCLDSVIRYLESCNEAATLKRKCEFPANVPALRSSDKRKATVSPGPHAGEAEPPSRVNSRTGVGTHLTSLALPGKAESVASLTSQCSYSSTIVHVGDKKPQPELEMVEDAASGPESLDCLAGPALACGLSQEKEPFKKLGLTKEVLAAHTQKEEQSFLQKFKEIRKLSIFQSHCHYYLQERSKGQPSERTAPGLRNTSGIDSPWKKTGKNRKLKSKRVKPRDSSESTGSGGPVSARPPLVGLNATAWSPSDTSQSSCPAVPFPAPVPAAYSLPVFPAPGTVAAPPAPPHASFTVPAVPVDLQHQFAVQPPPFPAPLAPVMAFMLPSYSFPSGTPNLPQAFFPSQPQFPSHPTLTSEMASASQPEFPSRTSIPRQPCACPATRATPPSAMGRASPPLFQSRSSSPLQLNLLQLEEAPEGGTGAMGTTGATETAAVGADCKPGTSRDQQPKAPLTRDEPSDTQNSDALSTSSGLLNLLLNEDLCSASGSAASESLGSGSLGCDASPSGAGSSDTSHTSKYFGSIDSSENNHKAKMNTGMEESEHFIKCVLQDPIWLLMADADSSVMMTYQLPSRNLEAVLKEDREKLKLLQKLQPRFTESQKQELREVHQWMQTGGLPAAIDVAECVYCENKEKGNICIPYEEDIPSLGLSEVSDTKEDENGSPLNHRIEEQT
The test is described as follows: co-IP.

Test [5] addresses T5, endogenous PER2 of HCT116 cells (human (endogenous in HCT116)) (UniProt O15055).
T5 sequence: T4 sequence
Put plainly: co-IP.

Test [6] deals with T6, FLAG-PER2, in vitro transcribed and translated (human) (UniProt O15055).
T6 sequence: T4 sequence
Put plainly: co-IP.

Test [7] deals with T7, PER2(S662A), in vitro transcribed and translated (human) (UniProt O15055).
T7 sequence: T4 sequence with S662A
Put plainly: co-IP.

The target in test [8] is T8, myc-PER2, in vitro transcribed and translated (human) (UniProt O15055).
T8 sequence: T4 sequence
The test is described as follows: co-IP.

As to “FLAG-CK1ε, in vitro transcribed and translated (from UniProt P49674 1-416) (enzyme)”, the binding entry in test [1] was “binds”.

With “FLAG-MDM2, in vitro transcribed and translated (from UniProt Q00987-11 1-497)”, the binding entry in test [2] and in test [3] was “binds” throughout.

Turning to “endogenous β-TrCP1 of HCT116 p53+/+ cells (from UniProt Q9Y297 1-605)”, in test [4], the binding entry is recorded as “binds”.

Turning to “myc-MDM2 expressed in HCT116 cells (from UniProt Q00987-11 1-497)”, in test [5], the binding entry is given as “binds”.

As for “myc-MDM2, in vitro transcribed and translated (from UniProt Q00987-11 1-497)”, the binding entry in test [6] was “binds”.

As for “β-TrCP1, in vitro transcribed and translated (from UniProt Q9Y297-2 1-569)”, the binding result in test [7] and in test [8] was “binds” throughout.
